Laboratory results reported in patent US20210024903A1.
No constants are given. Whether binding was seen depends on the method and setting. Some entries that bind do so weakly or less than the wild type.

Chains of the proteins cited; added tags and fusions are not shown. Residues count along the entry.
UniProt P18177, residues 2-2366: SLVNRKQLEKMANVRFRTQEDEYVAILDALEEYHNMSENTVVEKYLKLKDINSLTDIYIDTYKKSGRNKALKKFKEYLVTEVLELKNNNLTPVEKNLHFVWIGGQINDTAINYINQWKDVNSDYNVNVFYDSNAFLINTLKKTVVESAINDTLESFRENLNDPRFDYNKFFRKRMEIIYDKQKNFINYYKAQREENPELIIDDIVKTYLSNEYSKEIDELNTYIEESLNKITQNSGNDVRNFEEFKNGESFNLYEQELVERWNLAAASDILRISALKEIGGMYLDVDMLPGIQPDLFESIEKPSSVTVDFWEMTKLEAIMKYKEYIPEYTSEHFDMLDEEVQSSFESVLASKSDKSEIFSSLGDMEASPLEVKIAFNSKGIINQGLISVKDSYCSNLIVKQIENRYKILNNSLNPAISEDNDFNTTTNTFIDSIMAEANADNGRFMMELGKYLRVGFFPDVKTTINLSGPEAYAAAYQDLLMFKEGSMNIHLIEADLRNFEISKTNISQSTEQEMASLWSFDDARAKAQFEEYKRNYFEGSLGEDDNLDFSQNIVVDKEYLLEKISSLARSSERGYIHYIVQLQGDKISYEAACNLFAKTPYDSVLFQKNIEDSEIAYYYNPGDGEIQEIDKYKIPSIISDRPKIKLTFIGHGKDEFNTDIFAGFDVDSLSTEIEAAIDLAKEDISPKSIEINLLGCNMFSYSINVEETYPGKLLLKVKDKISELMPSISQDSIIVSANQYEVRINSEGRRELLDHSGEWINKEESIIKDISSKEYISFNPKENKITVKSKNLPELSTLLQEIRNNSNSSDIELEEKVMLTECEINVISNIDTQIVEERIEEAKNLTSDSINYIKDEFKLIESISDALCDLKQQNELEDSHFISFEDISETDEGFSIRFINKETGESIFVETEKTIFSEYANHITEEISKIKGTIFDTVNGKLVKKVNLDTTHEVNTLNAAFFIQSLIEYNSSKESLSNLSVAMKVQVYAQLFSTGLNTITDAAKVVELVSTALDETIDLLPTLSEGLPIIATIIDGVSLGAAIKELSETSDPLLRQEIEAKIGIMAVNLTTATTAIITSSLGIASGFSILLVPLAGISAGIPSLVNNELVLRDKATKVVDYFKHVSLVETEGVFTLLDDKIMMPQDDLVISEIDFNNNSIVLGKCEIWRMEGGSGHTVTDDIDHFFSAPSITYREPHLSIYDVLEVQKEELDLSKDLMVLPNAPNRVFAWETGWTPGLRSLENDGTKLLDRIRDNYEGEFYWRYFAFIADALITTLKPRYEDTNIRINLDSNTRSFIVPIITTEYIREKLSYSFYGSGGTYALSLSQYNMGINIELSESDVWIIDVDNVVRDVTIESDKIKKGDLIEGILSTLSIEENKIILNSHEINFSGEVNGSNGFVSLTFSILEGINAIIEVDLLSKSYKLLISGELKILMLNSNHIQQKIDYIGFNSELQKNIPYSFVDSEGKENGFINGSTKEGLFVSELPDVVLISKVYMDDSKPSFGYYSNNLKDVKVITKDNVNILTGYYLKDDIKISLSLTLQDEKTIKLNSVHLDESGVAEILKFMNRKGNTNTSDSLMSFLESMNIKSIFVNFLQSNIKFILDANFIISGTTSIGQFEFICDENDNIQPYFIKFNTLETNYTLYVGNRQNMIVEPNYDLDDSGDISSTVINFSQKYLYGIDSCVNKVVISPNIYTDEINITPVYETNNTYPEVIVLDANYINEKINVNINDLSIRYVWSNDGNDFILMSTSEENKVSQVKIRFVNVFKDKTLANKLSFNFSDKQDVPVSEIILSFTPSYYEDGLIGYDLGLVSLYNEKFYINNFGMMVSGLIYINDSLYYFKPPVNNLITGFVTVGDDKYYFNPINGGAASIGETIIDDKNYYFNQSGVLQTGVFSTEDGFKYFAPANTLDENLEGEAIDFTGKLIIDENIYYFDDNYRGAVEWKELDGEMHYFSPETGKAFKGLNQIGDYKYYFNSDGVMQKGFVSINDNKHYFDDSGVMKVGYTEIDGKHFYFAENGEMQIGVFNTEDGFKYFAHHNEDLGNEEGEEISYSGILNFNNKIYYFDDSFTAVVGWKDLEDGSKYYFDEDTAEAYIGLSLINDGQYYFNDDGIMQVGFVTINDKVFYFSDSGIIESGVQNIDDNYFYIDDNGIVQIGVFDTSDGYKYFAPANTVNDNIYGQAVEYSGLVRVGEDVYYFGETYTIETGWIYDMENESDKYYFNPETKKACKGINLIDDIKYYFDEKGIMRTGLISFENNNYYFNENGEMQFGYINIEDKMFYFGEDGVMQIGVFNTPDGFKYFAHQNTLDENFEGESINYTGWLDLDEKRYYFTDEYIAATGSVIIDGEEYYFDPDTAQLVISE

Key:
[1] = biological target: Toxoid B, List (formalin-inactivated wild type toxin B) (C. difficile) (UniProt P18177); experiment: dot blot
[2] = biological target: Toxoid B, List (formalin-inactivated wild type toxin B) (C. difficile) (UniProt P18177); experiment: dot blot, nondenaturing
[3] = biological target: Commercial, FI Toxoid B (List Biologicals) (Clostridium difficile) (UniProt P18177); experiment: dot blot, non-denaturing

| Binder | binding [1] | binding [2] | binding [3] |
| --- | --- | --- | --- |
| B8-26 mAb (antibody, V domains shown) VH: QVQLQQPGAELVKPGAPVKLSCKASGYSFTSYWMNWVKQRPGRGLEWIGRIDPSNSEIYYNQKFKDKATLTVDKSSSTAYIQLSSLTSEDSAVYYCASGHYGSIFAYWGQGTTLTVSS VL: VQITQSPSYLAASPGETITINCRASKSISKYLAWYQEKPGKTNKLLLYSGSTLQSGIPSRFSGSRSGTDFTLIISSLEPEDSAMYYCQQHNEYPLTFGAGTKLELKR | binds | binds |  |
| B59-3 mAb (antibody, V domains shown) VH: QVQLQQPGAELVKPGASVKLSCKASGYTFTSYWMHWVKQRPGQGLEWIGVINPSNGRSTYSEKFKTTATVTVDKSSSTAYMQLSILTSEDSAVYYCARAYYSTSYYAMDYWGQGTSVTVSS VL: VLMTQSPLSLPVSLGDQASISCRSSQNIVHSNGNTYLEWYLQKPGQSPKLLIYKVSNRFSGVPDRFSGSGSGTYFTLKISRVEAEDLGVYYCFQGSHFPFTFGTGTKLEIKR | binds | binds |  |
| B8-26 (antibody, V domains shown) VH: QVQLQQPGAELVKPGAPVKLSCKASGYSFTSYWMNWVKQRPGRGLEWIGRIDPSNSEIYYNQKFKDKATLTVDKSSSTAYIQLSSLTSEDSAVYYCASGHYGSIFAYWGQGTTLTVSS VL: VQITQSPSYLAASPGETITINCRASKSISKYLAWYQEKPGKTNKLLLYSGSTLQSGIPSRFSGSRSGTDFTLIISSLEPEDSAMYYCQQHNEYPLTFGAGTKLELKR |  |  | binds |
| B59-3 (antibody, V domains shown) VH: QVQLQQPGAELVKPGASVKLSCKASGYTFTSYWMHWVKQRPGQGLEWIGVINPSNGRSTYSEKFKTTATVTVDKSSSTAYMQLSILTSEDSAVYYCARAYYSTSYYAMDYWGQGTSVTVSS VL: VLMTQSPLSLPVSLGDQASISCRSSQNIVHSNGNTYLEWYLQKPGQSPKLLIYKVSNRFSGVPDRFSGSGSGTYFTLKISRVEAEDLGVYYCFQGSHFPFTFGTGTKLEIKR |  |  | binds |
